These are yes or no findings as the source states them, for the method shown. Binding calls can cover weak binding; strength is not graded here.

The assay has as its target recombinant FBG domain of L-ficolin (L-rFBG) (human). The assay is described as follows: ELISA; 0.8 ug L-rFBG immobilised first, 0.8 ug CRP added; normalised to directly immobilised protein as 100%; both purified. (In an ELISA, binding on a coated surface is turned into a signal by an enzyme label.)

B1: C-reactive protein (CRP), human, purified (Sigma) (protein, UniProt P02741 19-224)
chain: QTDMSRKAFVFPKESDTSYVSLKAPLTKPLKAFTVCLHFYTELSSTRGYSIFSYATKRQDNEILIFWSKDIGYSFTVGGSEILFEVPEVTVAPVHICTSWESASGIVEFWVDGKPRVRKSLKKGYTVGAEASIILGQEQDSFGGNFEGSQSLVGDIGNVNMWDFVLSPDEINTIYLGGPFSPNVLNWRALKYEVQGEVFTKPQLWP
On to B1, for which the binding result is listed as “binds”.

The values are drawn from paper PMC2629585.
